Several values for one entry are separate records, joined by “and”; a condition that tells them apart may be missing. Equal entries are not always repeated. The whole screen tested about 390,000 compounds, of which about 820 (0.21%) were called active. Inconclusive results, whose numbers are uncertain, are shown with a selection of clear calls. Calls come from the whole dose curve; as a rule, active = well fitted inhibition curve with a large enough effect; inconclusive = small, poorly fitted or top-dose-only effect, or another doubt; inactive = no such curve, though single readings can be large or run the other way. Potencies beside an inconclusive call are fits to weak or partial responses and may not hold up.
Target: Histone acetyltransferase KAT2A (Homo sapiens) (UniProt Q92830)
Assay: qHTS Assay for Inhibitors of GCN5L2
Conditions: GCN5L2 HAT assay, ThioGlo1 CoA-SH fluorescence; activity change, negative = inhibition: at 58.9 µM (top of the series) unless noted
How it was run: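 GCN5L2 (20nM final) in 50mM HEPES, 0.1mM EDTA pH 7.5, 0.01% Tween-20 was preincubated 15 min at room temperature with compound, then given ThioGlo1 (50uM), H3(1-25) peptide (75uM) and acetyl-CoA (70uM); CoA-thiol fluorescence (Ex340/Em540) was read at 0 and 20 min.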
% is set by controls: 0 for no effect and ±100 for the full control effect; potency is the fitted concentration of half-maximal effect.

Protein sequences, listed by entry. Tags and fused reporters are not part of them.
UniProt Q92830, whole entry, looked up: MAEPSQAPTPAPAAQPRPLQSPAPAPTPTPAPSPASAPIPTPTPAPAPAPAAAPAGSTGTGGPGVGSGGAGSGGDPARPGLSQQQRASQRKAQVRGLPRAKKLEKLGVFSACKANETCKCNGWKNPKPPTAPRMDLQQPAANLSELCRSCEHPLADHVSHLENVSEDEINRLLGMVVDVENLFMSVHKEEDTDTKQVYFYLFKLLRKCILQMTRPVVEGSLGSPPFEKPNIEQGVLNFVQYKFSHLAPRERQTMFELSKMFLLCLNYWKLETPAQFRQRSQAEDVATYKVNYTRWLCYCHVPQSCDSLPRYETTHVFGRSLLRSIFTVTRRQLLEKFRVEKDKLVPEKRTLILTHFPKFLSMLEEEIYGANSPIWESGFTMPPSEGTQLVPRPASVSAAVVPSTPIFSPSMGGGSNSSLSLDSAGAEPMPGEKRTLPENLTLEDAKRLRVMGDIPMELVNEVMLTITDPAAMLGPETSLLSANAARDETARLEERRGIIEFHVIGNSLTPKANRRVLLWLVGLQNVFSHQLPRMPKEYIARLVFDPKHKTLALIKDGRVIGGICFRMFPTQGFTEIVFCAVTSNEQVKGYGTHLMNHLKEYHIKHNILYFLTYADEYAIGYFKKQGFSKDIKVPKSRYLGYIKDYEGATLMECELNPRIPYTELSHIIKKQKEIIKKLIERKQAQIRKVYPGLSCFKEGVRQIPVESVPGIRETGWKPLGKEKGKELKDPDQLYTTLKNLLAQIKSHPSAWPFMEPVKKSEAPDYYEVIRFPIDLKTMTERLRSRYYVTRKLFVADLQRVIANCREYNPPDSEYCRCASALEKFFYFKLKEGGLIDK

Row | SMILES | Potency | activity change, negative = inhibition
1 | Cc1c(OCC(=O)NC(Cc2ccc(Cl)cc2)C(=O)O)ccc2c(-c3ccccc3)cc(=O)oc12 (stereo not given) | inconclusive: 20 µM [inhibitor, partial curve] | 
2 | N=C1/C(=C\c2coc3ccccc3c2=O)C(=O)N=C2SC(c3ccncc3)=NN12 | inconclusive: 25.1 µM [inhibitor, single point] | 
3 | CN(C)C(=O)c1ccc(-c2nccc(Nc3ccc(F)cc3)n2)cc1 | inconclusive: 28.2 µM [inhibitor, single point] | 
4 | CCCn1c(O)c2ccc(C(=O)N=NC(=O)c3cccnc3)cc2c1O | inconclusive: 0.708 µM [inhibitor, single point] | 
5 | Cc1cccc(N2CSC3=C(C#N)C(c4ccc(C)o4)CC(=O)N3C2)c1 (stereo not given) | inconclusive: 14.1 µM [inhibitor, partial curve] | 
6 | Cc1cccc(N2CCN(C(=O)c3cn(CC(C)C)c(=O)c4c3c3ccccc3n4C)CC2)c1C | inactive | 
7 | Cc1cccc(NC(=O)CSc2nc(NS(=O)(=O)c3ccccc3)cc(=O)[nH]2)c1 | inconclusive: 39.8 µM [inhibitor, single point] | 
8 | O=C(COC(=O)c1cccs1)NCCC1=CCCCC1 | inactive | 
9 | CN1CCN(C(=O)c2ccc(COc3ccc(C(C)(C)C)cc3)o2)CC1 | inconclusive: 10 µM [inhibitor, partial curve] | 
10 | CC1Cc2ccccc2N1C(=O)CSc1nnnn1C1CCCC1 (stereo not given) | inconclusive: 5.62 µM [inhibitor, single point] | 
11 | O=C(CCS(=O)(=O)c1ccc(F)cc1)N1CCN(c2ccccc2)CC1 | inactive | 
12 | CCCN(CC(=O)Nc1ccccc1C)C(=O)COC(=O)CSc1ccc([N+](=O)[O-])cc1 | inactive | 
13 | COc1ccc(-c2cn3cc(C)ccc3n2)cc1OC | inconclusive: 5.62 µM [inhibitor, full curve, poor fit] | 
14 | COc1ccccc1C(=O)NNC1=NS(=O)(=O)c2ccccc21 | inconclusive: 39.8 µM [inhibitor, single point] | 
15 | COc1ccc(N2CCN(C(=O)c3ccc(C)cc3)CC2)c([N+](=O)[O-])c1 | inactive | 
16 | O=C(CC(Sc1ccccc1)c1cccs1)c1ccco1 (stereo not given) | inconclusive: 39.8 µM [inhibitor, single point] | 
17 | O=C(Nc1ccc(O)c2c(=O)cc(-c3ccccc3Cl)oc12)c1ccc(Br)cc1 | inconclusive: 17.8 µM [inhibitor, partial curve] | 
18 | CCSC1=NC2(CCCCC2)Nc2sc3c(c21)CCCC3 | inconclusive: 25.1 µM [inhibitor, single point] | 
19 | CCc1ccc(N=C2NC(=O)/C(=C/c3cc(Br)c(OCC(=O)O)c(OC)c3)S2)cc1 | inconclusive: 28.2 µM [inhibitor, single point] | 
20 | O=C1/C(=C/C=C/c2ccco2)SC(=S)N1NS(=O)(=O)c1ccccc1 | active: 20 µM | 
21 | COCC(=O)Nc1cc(C)cn(Cc2c(F)cccc2Cl)c1=O | inactive | 
22 | O=C(O)Cc1ccc(N=Nc2c(O)c(C(=O)O)cc3ccccc23)cc1 | inconclusive: 28.2 µM [inhibitor, single point] | 
23 | CCOCCn1c(CN2CCN(CCO)CC2)nc2c1c(=O)n(C)c(=O)n2C | inconclusive: 2.82 µM [inhibitor, partial curve] | 
24 | Clc1ccc(Oc2cnns2)cc1Cl | inconclusive: 39.8 µM [inhibitor, single point] | 

Whole records, looked up by structure:
`COc1ccc(N2CCN(C(=O)c3ccc(C)cc3)CC2)c([N+](=O)[O-])c1` in the list: Potency: inactive
`COc1ccccc1C(=O)NNC1=NS(=O)(=O)c2ccccc21` in the list: Potency: inconclusive: 39.8 µM [inhibitor, single point]
`COc1ccc(-c2cn3cc(C)ccc3n2)cc1OC` in the list: Potency: inconclusive: 5.62 µM [inhibitor, full curve, poor fit]
`O=C(CCS(=O)(=O)c1ccc(F)cc1)N1CCN(c2ccccc2)CC1` in the list: Potency: inactive

(list continues)

Row | SMILES | Potency | activity change, negative = inhibition
25 | COc1cc(NC(=O)c2ccc(COCC(F)(F)F)cc2)cc(OC)c1OC | inactive | 
26 | Cc1cccc(N2CCN(c3ccc(NC(=O)/C=C(/C(=O)O)c4ccccc4)cc3)CC2)c1 | inconclusive: 0.891 µM [inhibitor, single point] | 
27 | COc1ccc(C2c3ccsc3CCN2C(=O)C(C)(C)C)cc1 (stereo not given) | inactive | 
28 | Cc1cc(C)nc(N/N=C/c2cc(C)n(CC(F)(F)F)c2C)n1 | inactive | 
29 | CC(C)Oc1ccc(CNC(=O)c2cc3ccccn3n2)cc1 | inactive | 
30 | CC1CCN(S(=O)(=O)c2ccc(NC(=O)CCNC(=O)c3ccc(Cl)cc3)cc2)CC1 | inconclusive: 10 µM [inhibitor, partial curve] | 
31 | CCOC(=O)Cn1cc(C#N)c2cccc(CC)c21 | inconclusive: 7.08 µM [inhibitor, single point] | 
32 | COC(=O)c1c(C)oc2ccc(N(C(=O)c3ccncc3)S(=O)(=O)c3ccccc3)cc12 | inconclusive: 0.631 µM [inhibitor, single point] | 
33 | Cc1cccc(C2=NN(c3ccccc3)[C@@H](C(=O)N3CCOC3=O)[C@@H]2c2ccc(Cl)cc2)c1 | inconclusive: 12.6 µM [inhibitor, partial curve] and inconclusive: 22.4 µM [inhibitor, single point] | 
34 | COc1ccc(-c2csc(Nc3ccc(C)cn3)n2)cc1 | inconclusive: 39.8 µM [inhibitor, single point] | 
35 | COc1ccc(CC(=O)n2nc(-c3cccnc3)nc2N)cc1 | inconclusive: 7.08 µM [inhibitor, single point] | 
36 | Cc1ccc(C)c(NC(=O)CN2C(=O)CCc3ccccc32)c1 | inconclusive: 28.2 µM [inhibitor, partial curve] | 
37 | CC(C)(O)C#Cc1ccc(CN2CCC(n3nccc3NC(=O)C3CC3)CC2)cc1 |  | inconclusive: -32.1% [inhibitor]
38 | O=c1[nH]c(S)nc2sc3c(c12)CCCC3 | inactive | 
39 | Cc1noc(C)c1-c1ccc2ncnc(N3CCOCC3)c2c1 | inconclusive: 28.2 µM [inhibitor, partial curve] | 
40 | COCc1cc(=O)n2c([nH]c3ccccc32)c1C#N | inconclusive: 39.8 µM [inhibitor, single point] | 
41 | Cc1nc2scc(-c3cccs3)c2c(=O)o1 | inconclusive: 35.5 µM [inhibitor, partial curve] | 
42 | CC(=O)Nc1ccc(OCC(=O)NCc2ccccc2)cc1 | inconclusive: 0.708 µM [inhibitor, full curve, poor fit] | 
43 | CN(Cc1cnn(C)c1)Cc1nc(Cc2ccccc2Cl)no1 | inconclusive: 2.82 µM [inhibitor, single point] | 
44 | O=C(CSc1nc2ccccc2n1CCc1ccccc1)N1CCOCC1 | inactive | 
45 | O=C1CCC(C(=O)N2CCSCC2)CN1CCc1cccc(F)c1 (stereo not given) | inconclusive: 25.1 µM [inhibitor, partial curve, poor fit] | 
46 | O=C(Nc1nc(-c2ccccc2)cs1)c1ccccc1NS(=O)(=O)c1ccc(F)cc1 | inconclusive: 39.8 µM [inhibitor, single point] | 
47 | COc1ccc(N)c2c1C(=O)c1ccccc1C2=O | inactive | 
48 | C=CCNC(=O)NC(=O)COC(=O)COc1ccc(Br)cc1F | inconclusive: 39.8 µM [inhibitor, single point] | 

Row | SMILES | Potency | activity change, negative = inhibition
49 | CCCCN(CCCC)S(=O)(=O)c1ccc(C(=O)Nc2nnc(COC)o2)cc1 | inconclusive: 35.5 µM [inhibitor, single point] | 
50 | Cc1oc2c(CN(C)C)c(O)ccc2c(=O)c1-c1cscn1 | inactive | 
51 | COc1ccc(CCNC(=O)c2csc3c2CCCC3)cc1 | inactive | 
52 | O=C(/C=C/c1ccc(O)cc1)c1ccc(O)cc1O | inactive | 
53 | COc1cc(OC)c(NC(=O)C2CCCN(c3ncnc4c3nc3n4CCCCC3)C2)cc1Cl (stereo not given) | inactive | 
54 | CCC(=O)N1CCN(c2ccc(NC(=O)c3c(F)c(F)c(OC)c(F)c3F)cc2)CC1 |  | inconclusive: -95.7% [inhibitor] [at 0.501 µM]
55 | C[C@@]12C(=O)N(c3ccc(F)cc3)C(=O)N1[C@@H]1c3ccccc3OC[C@@H]1[C@H]2c1ccccc1 | inconclusive: 3.55 µM [inhibitor, single point] | 
56 | Cc1c(NC(=O)c2cccnc2)c(=O)n(-c2ccccc2)n1C | inconclusive: 10 µM [inhibitor, single point] | 
57 | Clc1cccc(-n2ncc3c(N4CCCCC4)ncnc32)c1 | inactive | 
58 | Cc1ccc(C)c(NC(=O)CN(C)C(=O)/C=C/c2ccco2)c1 | inconclusive: 0.708 µM [inhibitor, single point] | 
59 | Cc1cccc(CN2C(=O)c3ccccc3S(=O)(=O)c3ccc(C(=O)NCCCN4CCCC4)cc32)c1 | inactive | 
60 | Cc1ccc(CNC(=O)CN(C)S(=O)(=O)c2cccc3nsnc23)cc1 | inconclusive: 28.2 µM [inhibitor, partial curve] | 
61 | N=c1n(CCN2CCCCC2)c2ccccc2n1CC(=O)c1ccc(Cl)c(Cl)c1 | inactive | 
62 | CC(=O)c1cnc2nc(SCc3ccccc3C)nn2c1C | inconclusive: 28.2 µM [inhibitor, partial curve, poor fit] | 
63 | CC1=C(C(=O)Nc2cc(-c3cccc(F)c3)[nH]n2)C2(CCCCC2)OC1=O | inconclusive: 22.4 µM [inhibitor, single point] | 
64 | Cc1ccc(S(=O)(=O)c2nnn3c2nc(N2CCN(c4ccccn4)CC2)c2ccccc23)cc1C | inactive | 
65 | CCN(CC)Cc1c(O)ccc2cc(-c3nc4ccccc4n3C)c(=O)oc12 | inconclusive: 28.2 µM [inhibitor, partial curve] | 
66 | Cc1cc(C)c(NC(=O)CNC(=O)c2ccccc2OCc2c(C)noc2C)c(C)c1 | inconclusive: 1.26 µM [inhibitor, full curve, poor fit] | 
67 | OCc1c[nH]c2ccccc12 | inactive | 
68 | O=C(Cc1ccc(S(=O)(=O)N2CCOCC2)s1)NC1CCCCC1 | inactive | 
69 | O=c1ccc2[n+]([O-])c3ccc(O)cc3oc-2c1 | inconclusive: 39.8 µM [inhibitor, single point] | 
70 | CCC[C@H](CN[C@@H](CNC)[C@H](C)CC)NCCc1cc(C(F)(F)F)cc(C(F)(F)F)c1 | inconclusive: 39.8 µM [inhibitor, single point] | 

2 entries picked at random from the list so far:
Row | SMILES | Potency | activity change, negative = inhibition
63 | CC1=C(C(=O)Nc2cc(-c3cccc(F)c3)[nH]n2)C2(CCCCC2)OC1=O | inconclusive: 22.4 µM [inhibitor, single point] | 
51 | COc1ccc(CCNC(=O)c2csc3c2CCCC3)cc1 | inactive | 

From PubChem BioAssay AID504327 (National Center for Advancing Translational Sciences (NCATS), 2011)
